Out of some 390,000 compounds screened, about 60 (0.02%) were called active. This list was built around the results that the source calls inconclusive (neither active nor inactive); the mix of calls is not that of the screen. Cut-off read from the data, not from the text of the source: active = activity change below about -50%; inconclusive = between about -30% and that limit; inactive = weaker than that.
target: Mucolipin-1 (Homo sapiens) (UniProt Q9GZU1); experiment: qHTS for Inhibitors of the Human Mucolipin Transient Receptor Potential 1 (TRPML1); conditions: TRPML1-inducible cells, Ca2+ dye fluorescence, FDSS; hits give low values; inhibition of EC80 agonist-evoked calcium signal;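 note: stimulus is agonist 54-4 at its EC80 concentration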
Summary of the method: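 TRPML1-DL cells, Tet-induced overnight (~16 h, 37 °C) at 1,500 cells/well, were loaded with Ca8 no-wash dye plus quencher for 45-90 min at room temperature. Compounds were pinned during FDSS kinetic reading; agonist 54-4 at EC80 (4 uM final) then added.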
% is set by controls: 0 for no effect and ±100 for the full control effect.

Chains of the proteins cited; added tags and fusions are not shown.
UniProt Q9GZU1, whole entry, looked up: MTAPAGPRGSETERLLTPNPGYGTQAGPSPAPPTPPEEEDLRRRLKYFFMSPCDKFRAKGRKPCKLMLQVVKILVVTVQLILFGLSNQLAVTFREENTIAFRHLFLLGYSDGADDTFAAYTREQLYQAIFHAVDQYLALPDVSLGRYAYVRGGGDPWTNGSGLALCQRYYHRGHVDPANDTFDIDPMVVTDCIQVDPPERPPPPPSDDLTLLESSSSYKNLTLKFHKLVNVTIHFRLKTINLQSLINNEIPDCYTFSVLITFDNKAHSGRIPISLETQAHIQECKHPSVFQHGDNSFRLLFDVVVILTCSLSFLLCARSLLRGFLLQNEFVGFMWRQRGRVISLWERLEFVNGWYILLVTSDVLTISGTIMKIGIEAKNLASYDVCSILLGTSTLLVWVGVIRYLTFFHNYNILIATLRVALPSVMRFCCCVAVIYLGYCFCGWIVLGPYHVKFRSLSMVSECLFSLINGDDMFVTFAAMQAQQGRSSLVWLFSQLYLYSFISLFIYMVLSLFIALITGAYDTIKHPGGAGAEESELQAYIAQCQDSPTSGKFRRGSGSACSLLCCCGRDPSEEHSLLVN

Row | SMILES | activity change, negative = inhibition
1 | Cc1oc(-c2cccs2)nc1CS(=O)CC(=O)NCCc1ccccc1 (configuration not stated) | inactive: 2.64%
2 | CCOC(=O)N1CCN(c2c(Nc3ccc4c(c3)OCCO4)c(=O)c2=O)CC1 | inconclusive: -36.6%
3 | CC1(C(=O)NC2CCCC2)CCC(=O)N1Cc1ccccc1 (configuration not stated) | inconclusive: -31.4%
4 | Cc1ccc(C(=O)NNC(=O)C2CCN(C(=O)OC(C)(C)C)CC2)cc1 | inconclusive: -38.2%
5 | COC(=O)c1c(-c2ccc(N(C)C)cc2)sc2ccc(OC)cc12 | inactive: 25.2%
6 | O=C(CN1CCN(c2ccccc2)CC1)Nc1ccccc1C(F)(F)F | inconclusive: -39.9%
7 | CCOC(=O)C(=O)CC(=O)c1ccc2c(c1)OCCO2 | inconclusive: -33%
8 | Cn1c(SCC(=O)NC2CC2)nnc1-c1ccccc1 | inconclusive: -38.6%
9 | CCN(C(=O)CSc1nnc(C)c(=O)[nH]1)c1cccc2ccccc12 | inconclusive: -44.4%
10 | C[C@@H]1CN([C@H](C)CO)C(=O)c2cc(NC(=O)Nc3ccc(C(F)(F)F)cc3)ccc2O[C@H]1CN(C)S(=O)(=O)c1cccs1 | inactive: -3.27%
11 | CC1CCCC(C)N1CC(O)COC1CCC(C(C)(C)C)CC1 (configuration not stated) | inconclusive: -30.6%
12 | COc1ccc(C(=O)c2c(N)c(-c3nc(-c4ccc5c(c4)OCO5)cs3)c3ccccn23)cc1 | inconclusive: -43.3%
13 | CCCCN(CCCC)S(=O)(=O)c1ccc(C(=O)Nc2nnc(CSC)o2)cc1 | inconclusive: -41.2%
14 | CCCn1c2ccccc2c2cnn(CC(=O)Nc3cc(C)c(Cl)cc3OC)c(=O)c21 | inconclusive: -33.7%
15 | Oc1ccc(C[C@@H]2CNCCN2CCc2cccc3ccccc23)cc1 | inconclusive: -49%
16 | Cc1cccc(NS(=O)(=O)c2c(C)noc2C)c1 | inconclusive: -36%
17 | O=C(/C=C/c1cccs1)NCc1cccs1 | inconclusive: -34.6%
18 | Cc1onc(-c2ccccc2)c1C(=O)Nc1nnc(-c2ccncc2)s1 | inconclusive: -38.4%
19 | Cc1cccc(CCNC(=O)C2CCN(S(=O)(=O)c3c(C)nn(C)c3C)CC2)c1 | inconclusive: -39%
20 | CC(=O)c1cccc(NC(=O)c2cc(-c3ccc(F)cc3)on2)c1 | inactive: -16.4%
21 | CCOc1cc(CN2CCCC(N3CCN(c4ccc(F)cc4)CC3)C2)ccc1OC (configuration not stated) | inconclusive: -32.8%

Quoted from the listing, eight compounds:
Row | SMILES | activity change, negative = inhibition
6 | O=C(CN1CCN(c2ccccc2)CC1)Nc1ccccc1C(F)(F)F | inconclusive: -39.9%
7 | CCOC(=O)C(=O)CC(=O)c1ccc2c(c1)OCCO2 | inconclusive: -33%
8 | Cn1c(SCC(=O)NC2CC2)nnc1-c1ccccc1 | inconclusive: -38.6%
9 | CCN(C(=O)CSc1nnc(C)c(=O)[nH]1)c1cccc2ccccc12 | inconclusive: -44.4%
10 | C[C@@H]1CN([C@H](C)CO)C(=O)c2cc(NC(=O)Nc3ccc(C(F)(F)F)cc3)ccc2O[C@H]1CN(C)S(=O)(=O)c1cccs1 | inactive: -3.27%
11 | CC1CCCC(C)N1CC(O)COC1CCC(C(C)(C)C)CC1 (configuration not stated) | inconclusive: -30.6%
12 | COc1ccc(C(=O)c2c(N)c(-c3nc(-c4ccc5c(c4)OCO5)cs3)c3ccccn23)cc1 | inconclusive: -43.3%
13 | CCCCN(CCCC)S(=O)(=O)c1ccc(C(=O)Nc2nnc(CSC)o2)cc1 | inconclusive: -41.2%

More records follow:

Row | SMILES | activity change, negative = inhibition
22 | Cc1cc(C)c2c(=O)c3c(oc2c1)C(=O)N(CCO)C3c1cccc(O)c1 (configuration not stated) | active: -55.7%
23 | C[C@H]1CN([C@@H](C)CO)S(=O)(=O)c2ccc(/C=C/c3ccccc3)cc2O[C@H]1CN(C)C(=O)NC1CCCCC1 | inconclusive: -31.6%
24 | O=C(CSc1ccc2nnc(-c3ccccn3)n2n1)Nc1cccc(F)c1 | inconclusive: -35.3%
25 | C=CCOC(=O)C1=C[C@@H](c2ccc3c(c2)OCO3)C[C@@H](OCCCCO)O1 | inconclusive: -38%
26 | CC1(C)CC(=O)c2cc(OCC(=O)N3CCCCCC3)ccc2O1 | inactive: -2.75%
27 | O=C(O)c1ccc2c(c1)C(=O)N(c1cc([N+](=O)[O-])ccn1)C2=O | inconclusive: -41.8%
28 | CC(=O)Oc1ccc(C(=O)N2c3ccccc3NC(=O)C2C)cc1 (configuration not stated) | inconclusive: -34.8%
29 | CN(C)c1ccc(CN(CC2CCCO2)C(=O)c2cccs2)cc1 (configuration not stated) | inconclusive: -30.8%
30 | CCn1c(=O)[nH]c(=O)c2c(N)c(C(=O)c3cc(F)ccc3F)sc21 | inconclusive: -32.9%
31 | CC(C)OCC(O)CN1CCC(Cc2ccccc2)CC1 (configuration not stated) | inactive: 2.23%
32 | CCOc1ccc(NC(=O)CCc2c(C)nc3c4c(C)cc(C)nc4nn3c2C)cc1 | inconclusive: -41.9%
33 | Cc1cccc(C(C(N)=O)c2ncc(C(F)(F)F)cc2Cl)c1 (configuration not stated) | inconclusive: -34%
34 | CCn1nc(C)c(Br)c1-c1nc(-c2cccc(C)c2)no1 | inactive: 40.5%
35 | CCC(C(=O)NCCc1ccco1)n1nc(C)c2c(C)n(-c3ccccc3)nc2c1=O (configuration not stated) | inconclusive: -33.5%
36 | CCOc1cc(C(=O)NCCOC)ccc1OC | inconclusive: -33.3%
37 | COc1ccccc1C(O)(c1ccccc1)C(CN1CCOCC1)c1ccccc1 (configuration not stated) | inconclusive: -38.8%
38 | Cc1ccc(C(=O)C(C(=O)/C=C/c2ccccc2)=C2SCCCS2)cc1 | inactive: 4.13%
39 | O=C(Nc1ccccc1)c1cc(-n2cnnc2)ccc1Cl | inconclusive: -34%
40 | Cn1c(N)c(C(=O)CCl)c(=O)n(Cc2ccccc2)c1=O | inactive: -5.66%
41 | O=C(Nc1ccccc1C(=O)OCc1cc(=O)n2c3c(sc2n1)CCCC3)c1ccccc1 | inactive: -0.263%
42 | CC(C)(C)Cc1nnc(NC(=O)CN2C(=O)c3ccccc3C2=O)s1 | inconclusive: -35.4%

Source: PubChem BioAssay AID624415 (National Center for Advancing Translational Sciences (NCATS), 2012)
